This list was built around the results that the source calls inconclusive (neither active nor inactive); the mix of calls is not that of the screen. For some assays here: A potency beside an inconclusive call is a rough fit, not a confirmed value. The source made the active and inactive calls. Unless noted, the call rests on the fitted dose curve; in most records, active means well fitted curve in the direction sought with a large enough effect; inconclusive means small, poorly fitted or top-dose-only effect, or another doubt; inactive means no such curve, though single readings can be large; an effect the other way counts as inactive or inconclusive.
Legend:
[1] = Quantitative High-Throughput drug screen in 47 multiple myeloma cell lines against the NCATS MIPE library collection: SKMM1_PLB cell viability assay (AID 1919863); settings: SKMM1 myeloma viability, CellTiter-Glo ATP, 48 h; viability: stronger effect = lower value; further: potency means the concentration at half of the fitted maximal effect; nearly all actives have a fitted effect of over 35% in size
Summary of the method: (§1)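 500 cells/well per myeloma line exposed to pinned MIPE 4.0 compounds for 48 h at 37 °C, 5% CO2. Viability read as ATP by CellTiter-Glo luminescence, normalised to DMSO-only (100%) and media-only (0%) wells.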

Protein sequences, listed by entry. Tags and fused reporters are not part of them. Lines headed by an entry give the natural chain unless they say otherwise; changes in a name come on top.
UniProt Q07343: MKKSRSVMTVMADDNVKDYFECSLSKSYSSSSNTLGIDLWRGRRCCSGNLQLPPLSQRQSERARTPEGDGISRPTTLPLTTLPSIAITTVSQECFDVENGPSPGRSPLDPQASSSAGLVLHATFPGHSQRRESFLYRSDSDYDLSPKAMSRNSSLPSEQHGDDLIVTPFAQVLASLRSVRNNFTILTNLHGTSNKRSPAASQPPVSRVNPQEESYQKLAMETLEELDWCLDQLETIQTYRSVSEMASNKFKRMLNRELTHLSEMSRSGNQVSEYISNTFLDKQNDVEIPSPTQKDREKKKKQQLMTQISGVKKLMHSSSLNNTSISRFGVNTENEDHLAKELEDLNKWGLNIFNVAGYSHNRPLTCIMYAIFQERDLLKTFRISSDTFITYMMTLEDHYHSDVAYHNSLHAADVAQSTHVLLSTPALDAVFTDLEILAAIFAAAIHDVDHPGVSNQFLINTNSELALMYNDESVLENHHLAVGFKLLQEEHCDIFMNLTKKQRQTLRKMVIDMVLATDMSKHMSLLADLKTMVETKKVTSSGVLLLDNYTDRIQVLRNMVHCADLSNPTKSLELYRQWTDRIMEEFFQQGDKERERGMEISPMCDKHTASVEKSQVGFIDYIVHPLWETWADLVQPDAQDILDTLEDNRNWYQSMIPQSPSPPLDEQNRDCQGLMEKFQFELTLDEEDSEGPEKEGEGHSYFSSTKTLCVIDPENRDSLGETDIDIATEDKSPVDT
UniProt P07378: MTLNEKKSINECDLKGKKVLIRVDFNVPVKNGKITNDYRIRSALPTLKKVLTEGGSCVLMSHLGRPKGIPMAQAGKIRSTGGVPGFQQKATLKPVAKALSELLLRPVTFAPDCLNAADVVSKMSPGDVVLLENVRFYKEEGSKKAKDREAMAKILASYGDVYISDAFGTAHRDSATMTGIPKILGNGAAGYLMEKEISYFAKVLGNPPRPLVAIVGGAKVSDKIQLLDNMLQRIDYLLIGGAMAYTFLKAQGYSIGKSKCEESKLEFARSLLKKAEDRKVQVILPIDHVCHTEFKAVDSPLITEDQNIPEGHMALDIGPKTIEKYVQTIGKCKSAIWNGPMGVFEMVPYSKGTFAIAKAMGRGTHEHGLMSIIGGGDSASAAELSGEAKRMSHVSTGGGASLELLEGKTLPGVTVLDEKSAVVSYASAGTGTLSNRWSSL
UniProt Q99828: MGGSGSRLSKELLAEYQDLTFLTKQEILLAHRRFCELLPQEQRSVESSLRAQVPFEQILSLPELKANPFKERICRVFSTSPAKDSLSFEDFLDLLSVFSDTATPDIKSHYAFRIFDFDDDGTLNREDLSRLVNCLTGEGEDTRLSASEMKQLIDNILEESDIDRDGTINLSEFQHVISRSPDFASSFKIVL
UniProt P33261, whole entry, looked up: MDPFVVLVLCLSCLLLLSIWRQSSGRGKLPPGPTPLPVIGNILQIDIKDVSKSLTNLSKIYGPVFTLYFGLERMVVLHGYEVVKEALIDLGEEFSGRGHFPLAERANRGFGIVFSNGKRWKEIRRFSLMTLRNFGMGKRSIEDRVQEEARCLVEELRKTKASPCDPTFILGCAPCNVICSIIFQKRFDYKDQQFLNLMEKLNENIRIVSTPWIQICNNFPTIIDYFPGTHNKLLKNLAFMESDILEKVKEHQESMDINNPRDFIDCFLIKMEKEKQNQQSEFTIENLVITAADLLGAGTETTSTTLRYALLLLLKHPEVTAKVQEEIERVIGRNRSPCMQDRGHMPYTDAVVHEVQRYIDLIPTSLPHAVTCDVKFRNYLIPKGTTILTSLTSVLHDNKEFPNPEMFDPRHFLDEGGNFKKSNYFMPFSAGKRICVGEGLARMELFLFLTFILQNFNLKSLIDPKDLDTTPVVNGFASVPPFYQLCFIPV

[2] = Quantitative High-Throughput drug screen in 47 multiple myeloma cell lines against the NCATS MIPE library collection: UTMC2_PLB cell viability assay (AID 1919868); settings: CellTiter-Glo ATP luminescence, 48 h; viability (% of DMSO control): at 45.8 µM (top of the series); further: potency means the concentration at half of the fitted maximal effect; nearly all actives have a fitted effect of over 55% in size
Summary of the method: as §1

[3] = Quantitative High-Throughput drug screen in 47 multiple myeloma cell lines against the NCATS MIPE library collection: PE2_PLB cell viability assay (AID 1919869); further: potency means the concentration at half of the fitted maximal effect; nearly all actives have a fitted effect of over 35% in size
Summary of the method: as §1

[4] = Quantitative High-Throughput drug screen in 47 multiple myeloma cell lines against the NCATS MIPE library collection: KMS11_JCRBsus cell viability assay (AID 1919873); further: potency means the concentration at half of the fitted maximal effect; nearly all actives have a fitted effect of over 50% in size
Summary of the method: as §1

[5] = qHTS of pediatric cancer cell lines to identify multiple opportunities for drug repurposing: Confirmatory screen for NB-EBc1 cells (AID 1347115); further: potency means the concentration at half of the fitted maximal effect; nearly all actives have a fitted effect of over 45% in size
Summary of the method: (§2)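 Viability after 48 h compound treatment at 37C, 500-1,000 cells/well, read as ATP luminescence with CellTiter-Glo. Primary screens used 11-point (MIPE, 0.78 nM-46 µM) or 8-point (NPC, 0.59 nM-46 µM) final concentrations; follow-up screens used 11-point dilutions.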

[6] = qHTS of pediatric cancer cell lines to identify multiple opportunities for drug repurposing: Confirmatory screen for control Hh wild type fibroblast cells (AID 1347121); further: potency means the concentration at half of the fitted maximal effect; nearly all actives have a fitted effect of over 70% in size
Summary of the method: as §2

[7] = qHTS of pediatric cancer cell lines to identify multiple opportunities for drug repurposing: Confirmatory screen for Rh30 cells (AID 1347126); further: potency means the concentration at half of the fitted maximal effect; nearly all actives have a fitted effect of over 55% in size
Summary of the method: as §2

[8] = NCATS anti-infectives library activity on the primary C. elegans qHTS viability assay (AID 1745855; calls by dose curve)
Summary of the method: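 Viability read-out is GFP fluorescence of PE254-GFP-FLuc C. elegans, measured by laser cytometry (488 nm) at day 0, 3 and 7. Ten L1 worms per well were incubated 7 days at 21 °C with compounds and bacterial capsules in S medium.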

[9] = Quantitative High-Throughput drug screen in 47 multiple myeloma cell lines against the NCATS MIPE library collection: KMS12PE_JCRB cell viability assay (AID 1918972); further: potency means the concentration at half of the fitted maximal effect; nearly all actives have a fitted effect of over 30% in size
Summary of the method: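 Myeloma cell lines, 500 cells per well, exposed to MIPE 4.0 library compounds for 48 h at 37C, 5% CO2. Viability from ATP by CellTiter-Glo luminescence; normalised to DMSO (100%) and media-only (0%) wells.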

[10] = qHTS for identification of novel therapeutic agents for treatment of microphthalmiaassociated transcription factor (MiT) renal cell carcinoma (RCC) (AID 1963991; calls by dose curve; further: potency means the concentration at half of the fitted maximal effect); settings: TFE3-RCC UOK109 viability, CellTiter-Glo, 48 h; active = Z-AUC below -0.8 in all three lines
Summary of the method: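 UOK109/UOK124/UOK145 (TFE3 fusions, three partners); 500 cells/well; MIPE v4.0, 1912 cpds, 11 conc.; 48 h, 37 C; CellTiter-Glo, 15 min RT; lum. Norm.: DMSO 100%, empty 0%.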

[11] = system: N140; test: qHTS profiling for inhibitors of Plasmodium falciparum proliferation (AID 504749); further: potency means the concentration at half of the fitted maximal effect; nearly all actives have a fitted effect of over 60% in size; settings: P. falciparum in erythrocytes, SYBR Green DNA, 72 h; series mostly up to 28.7 µM
Summary of the method: (§3)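 P. falciparum-infected erythrocytes (0.3% parasitemia, 2.5% hematocrit) incubated with compound 72 h at 37 C, 5% CO2. Parasite DNA detected by SYBR Green after lysis, overnight at room temperature; normalised to 0.29 uM artemisinin and DMSO.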

[12] = qHTS Assay for Inhibitors of Fructose-1,6-bisphosphate Aldolase from Giardia Lamblia: Giardia lamblia growth inhibition (AID 2785); settings: Giardia lamblia trophozoite growth inhibition; further: potency means the concentration at half of the fitted maximal effect; nearly all actives have a fitted effect of over 70% in size
Summary of the method: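 G. lamblia WB trophozoites (100 cells/well) were grown with compound at 37C for 48 h in modified TYI-S-33 medium, pH 7.0. Growth was measured by ATPlite luminescence after 20 min at room temperature.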

[13] = qHTS profiling for inhibitors of Plasmodium falciparum proliferation (AID 504749); further: potency means the concentration at half of the fitted maximal effect; nearly all actives have a fitted effect of over 60% in size; settings: P. falciparum in erythrocytes, SYBR Green DNA, 72 h; Potency: parasite line B unless noted; series mostly up to 28.7 µM
Summary of the method: as §3

[14] = biological target: 3',5'-cyclic-AMP phosphodiesterase 4B (Homo sapiens) (UniProt Q07343); test: qHTS Assay for Inhibitors of PDE-IV (AID 607; active means well fitted activation curve with a large enough effect in the main read-out, with a control signal flat, not every such curve was filed as active; inconclusive means small, poorly fitted or top-dose-only effect, or effect the other way, or a change in a side signal; further: % of control where 0% means no effect); settings: HEK293 ACTOne CNG channel cells, membrane potential fluorescence; activation (PDE inhibition): at 22.9 µM (top of the series)
Summary of the method: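 The readout is membrane depolarisation from a cAMP-sensing CNG channel, detected with a potential dye at ex 535/em 590. Cells were HEK293-derived (endogenous PDE-IV) at 1000 cells/well, titrated up to 22.9 uM final.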

[15] = Quantitative high throughput screen for delayed death inhibitors of the malarial parasite plastid, 96 hour incubation (AID 488745); further: potency means the concentration at half of the fitted maximal effect; nearly all actives have a fitted effect of over 70% in size
Summary of the method: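 Infected erythrocytes were added to compound in Albumax-supplemented RPMI 1640 at 0.1% parasitemia and 2% hematocrit (final), incubated 96 h at 37 C under 5% CO2, then luciferase reagent was added and luminescence measured.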

[16] = biological target: Phosphoglycerate kinase, glycosomal (Trypanosoma brucei brucei) (UniProt P07378); test: qHTS Validation Assay to Find Inhibitors of Phosphoglycerate Kinase (AID 504547);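 further: control wells lack PGK and mark full inhibition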
Summary of the method: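 PGK activity was coupled to GAPDH (100nM final), which generates the unstable substrate 1,3-bisphosphoglycerate in-well. Reactions ran 60 minutes at room temperature in 100mM TEA pH 7.6, 5mM MgCl2, 0.01% Tween-20, then Kinase-Glo Plus luminescence was read.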

[17] = system: Zika virus NS2B-NS3 protease (unlinked); test: Optimization of GU AMC qHTS for Zika virus inhibitors: Unlinked NS2B-NS3 protease assay (AID 1347151);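 further: 0% = no-inhibitor control and -100% = no-enzyme control; nearly all actives have a fitted effect of over 80% in size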
Summary of the method: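 Fluorescence gain (340/450 nm) over 15 min at room temperature, ~20% conversion, gave percent inhibition fitted to a 4-parameter Hill equation; enzyme was unlinked NS2B-NS3 (25 nM final), pH 8.0 Tris buffer.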

[18] = biological target: Calcium and integrin-binding protein 1 (Homo sapiens) (UniProt Q99828); test: Confirmatory qHTS for Identification of Calcium Integrin Binding Protein 1 (CIB1) Competitor (AID 1508617); further: potency means the concentration at half of the fitted maximal effect; nearly all actives have a fitted effect of over 65% in size
Summary of the method: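 Confirmatory qHTS measures displacement of a FITC-alphaIIb peptide (100 nM) from CIB1-GST (1 uM) by fluorescence polarization. Calcium-containing HEPES buffer, pH 7.4; two 15 min room-temperature incubations.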

[19] = biological target: Cytochrome P450 2C19 (Homo sapiens) (UniProt P33261); test: qHTS Assay for Inhibitors and Substrates of Cytochrome P450 2C19 (AID 899); settings: recombinant CYP2C19, luciferin-H EGE luminescence; activity, negative = inhibition: at 57.1 µM (top of the series); further: on the % scale 0 is the no-effect control and ±100 the full control effect; nearly all actives have a fitted effect of over 60% in size
Summary of the method: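 5 nM human CYP2C19 with 10uM Luciferin-H EGE (at KM) in 50mM KPO4, compound preincubated 10 min at 37C, then NADPH regeneration for 60 min at 37C. Luciferin read by luminescence after detection reagent; normalized to 57uM ketoconazole as full inhibition.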

[20] = system: Zika virus NS2B-NS3 protease (linked construct); test: Confirmatory screen NINDS AMC qHTS for Zika virus inhibitors (AID 1347152); further: potency means the concentration at half of the fitted maximal effect; nearly all actives have a fitted effect of over 70% in size
Summary of the method: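 IC50s from 4-parameter Hill fits of percent inhibition, based on AMC fluorescence gain (340/450 nm) over 15 min with 10 microM Bz-Nle-KRR-AMC. Enzyme: 1 nM linked NS2B-NS3 in Tris-HCl pH 8.0; 15-min compound preincubation.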

Compound: Nc1ccn(C[C@@H](CO)OCP(=O)(O)O)c(=O)n1
- Potency [1]: inconclusive: 0.0016 µM [rising, full curve, poor fit]
- Potency [2]: inconclusive: 0.204 µM [cytotoxic, full curve, poor fit]
- Potency [3]: inconclusive: 0.0162 µM [cytotoxic, full curve, poor fit]
- Potency [4]: inconclusive: 0.0006 µM

Compound: CC(C)(C)C(=O)OCOP(=O)(COCCn1cnc2c(N)ncnc21)OCOC(=O)C(C)(C)C
- Potency [5]: active: 8.27 µM
- Potency [6]: inconclusive: 14.7 µM [cytotoxic, partial curve, poor fit]
- Potency [7]: inconclusive: 9.27 µM [cytotoxic, full curve, poor fit]
- Potency [8]: inactive
- Potency [9]: inconclusive: 8.33 µM [cytotoxic, partial curve]
- Potency [10]: inconclusive: 20.9 µM [falling, partial curve]
- Potency [11]: inconclusive: 17.8 µM [inhibitor, single point]

Compound: CCCCc1nc(Cl)c(CO)n1Cc1ccc(-c2ccccc2-c2nn[nH]n2)cc1
- Potency [12]: inconclusive: 39.8 µM [inhibitor, single point]
- Potency [13]: active: 12.6 µM

Compound: C[N+](C)(C)CCCCCCCCCC[N+](C)(C)C
- Potency [14]: inactive
- Potency [15]: active: 0.329 µM
- Potency [16]: inactive
- Potency [17]: inactive

Compound: CC(=O)c1c(O)cc2cccc3c2c1CC(C)(O)O3 (stereo not given)
- Potency [18]: active: 39.8 µM

Compound: NS(=O)(=O)c1ccc(C(=O)O)cc1
- activity, negative = inhibition [19]: inactive: 48.2% [at 11.4 µM]

Compound: CC(=O)OC12CC(C)C(OC(=O)c3ccccc3)C1/C=C(/C)C(OC(=O)c1ccccc1)CC(=O)C(C)(C)/C=C/C(C)C2=O (stereo not given)
- Potency [20]: inconclusive: 14.7 µM [inhibitor, partial curve]

Source: PubChem BioAssay (NCATS)
